According to PubChem BioAssay AID1794844 (National Center for Advancing Translational Sciences (NCATS), 2023):
The campaign covered roughly 2,800 compounds. Fewer than 10 were called active. Not shown: some 7% with an inconclusive outcome. Calls follow the shape of the dose curve; as a rule, active = well fitted inhibition curve with a large enough effect; inconclusive = small, poorly fitted or top-dose-only effect; inactive = no such curve, though single readings can be large or run the other way. This is one part of the list.

Sequences of proteins named here, by UniProt entry; tags and fusion partners are left off. A change or cut given only in a name is not applied to a line headed by its entry.
UniProt C7C422: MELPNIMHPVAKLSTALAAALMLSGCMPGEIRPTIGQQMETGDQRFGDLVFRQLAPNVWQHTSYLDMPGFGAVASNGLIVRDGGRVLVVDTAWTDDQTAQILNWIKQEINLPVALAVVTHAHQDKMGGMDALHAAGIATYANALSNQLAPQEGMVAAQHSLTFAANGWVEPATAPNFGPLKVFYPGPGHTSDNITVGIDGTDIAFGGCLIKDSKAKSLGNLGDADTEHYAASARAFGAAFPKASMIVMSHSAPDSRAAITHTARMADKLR

What follows are compounds tested against Metallo-beta-lactamase type 2 (Klebsiella pneumoniae) (UniProt C7C422) (assay: qHTS to identify inhibitors of the New Delhi Metallo-beta-lactamase (NDM): Nitrocefin screen against the machine-based learning selections.). Conditions: NDM-1 enzyme, nitrocefin hydrolysis, absorbance 485 nm; at 57.5 µM (top of the series) unless noted.
From the text: Assay Submitter (PI): James Inglese Ph.D., Patricia Dranchak Ph.D., Mahesh Aitha Ph.D. Assay Development and Screening Technology Laboratory (ADST) National Center for Advancing Translational Sciences (NCATS), Rockville, MD National Institute of Health (NIH), Bethesda, Maryland The metallo-beta-lactamases (MBL) are a main antibiotic resistance mechanism evolved by bacteria. There is an urgent clinical need for MBL inhibitors to mitigate this growing threat. To support a machine-based learning study, qHTS has been used to experimentally test inhibitors identified by prediction tools.
PROTOCOL TABLE (as described by Inglese et al., 2007) SEQUENCE No. (e.g., 1, 2, 3, etc.); […] (e.g., enzyme, Incubation, Reagent, etc.); VALUE; DESCRIPTION Primary Screen 1; NDM-1; 4 uL of 3 nM enzyme [2 nM final] in 50 mM HEPES (pH 7.0), 1 uM […], 0.01% Tween20; Use BioRaptr to dispense into two sets of Aurora black, clear bottom high base 1536-well plates 2; Compounds; 23 nL; Use Pin Tool (Wako) to transfer DMSO control and library compounds in DMSO 3; Incubate; >30 min 4a; Reagent; 2 uL of 50 uM nitrocefin [16.7 uM final] to one set of assay plates 4b; Reagent; 2 uL of 150 uM meropenem [50 uM final] to second set of assay plates 5a; Incubate; 15 min 5b; Incubate; 30 min 6a; Detector; Absorbance at 485 nm (bandwidth = 5 nm, 25 flashes/well) on Tecan Infinity 6b; Detector; Absorbance at 300 nm (bandwidth = 5 nm, 25 flashes/well) on Tecan Infinity NOTES (numbers refer to sequence above) 1; Column 1 of each plate received assay buffer without enzyme and columns 2-48 received enzyme for a final assay concentration of 2 nM. 2; Control plate contained DMSO in columns 1, 2, 3, and 4. 3; Compound interaction with enzyme. 4; Nitrocefin and meropenem substrates were prepared in the same assay buffer as step 1 for a final assay concentration of 16.7 uM and 50 uM, respectively, and added to all wells across respective sets of assay plates. 5; Default reader settings were applied for absorbance read at 485 nm (nitrocefin) or 300 nm (meropenem), bandwidth = 5 nm, 25 flashes/well. References: Inglese J, Shamu CE, Guy RK. 2007. Reporting data from high-throughput screening of small-molecule libraries. Nat Chem Biol. doi:10.1038/nchembio0807-438 Yasgar A, Shinn P, Jadhav A, Auld D, Michael S, Zheng W, Austin CP, Inglese J, Simeonov A. 2008. Compound Management for Quantitative High-Throughput Screening. J Lab Autom 13:79 - 89. doi:10.1016/j.jala.2007.12.004
Also: % of control where 0% means no effect.

Compound	activity, negative = inhibition
CC(=O)c1ccc(NC(=O)OC[C@H]2C[C@@H]3CCN2C[C@@H]3c2cc(-c3cccs3)nn2C)cc1	inactive: -1.4% [at 38.4 µM]
Cc1ccc2c(n1)N(C)[C@H](CO)CCN(C1CCCC1)C2	inactive: -0.123% [at 76.7 µM]
COc1cc2c(cc1Oc1ccccc1)NC(=O)C21CCN(Cc2cccc(O)c2)CC1	inactive: 4.34%
Cn1nc(C(=O)N[C@@H]2COCC[C@@H]2OCc2cscn2)c2ccccc21	inactive: -5.05% [at 38.4 µM]
CC(=O)NCCNC(=O)[C@H]1CN2CCC1C[C@@H]2Cn1cc(CSc2ccccc2)nn1 (stereo partly specified)	inactive: 10.9% [at 38.4 µM]
Cc1nc(C2CCCC2)cc([C@H]2CN3CC[C@H]2C[C@@H]3CNC(=O)CCCC(=O)O)n1	inactive: 10.2%
Cc1ccc(S(=O)(=O)NC[C@H]2C[C@@H]3CCN2C[C@@H]3CN2CCN(c3ncccn3)CC2)cc1	inactive: -11.2% [at 38.4 µM]
C#CCN(C)C[C@H]1CN2CC[C@H]1C[C@@H]2CNC(=O)NC(C)C	inactive: 4.29%
CCNC(=O)NC[C@H]1C[C@@H]2CCN1C[C@@H]2c1cc(-c2ccccc2)nn1C	inactive: 1.6%
CN(C[C@H]1CN2CC[C@H]1C[C@@H]2CNS(=O)(=O)c1cccs1)c1ccccc1	inactive: -23.7%
COCC(=O)NC[C@H]1C[C@@H]2CCN1C[C@@H]2c1cc(-c2cccs2)nn1C	inactive: 1.82%
COCC(=O)NC[C@H]1C[C@@H]2CCN1C[C@@H]2c1cc(-c2ccc(OC)cc2)nn1C	inactive: 6.6%
CC(C)(C)c1cn(C[C@H]2CC3CCN2C[C@@H]3C(=O)NCc2ccccc2)nn1 (stereo partly specified)	inactive: -5.09%
COc1ccc(NC(=O)OC[C@H]2C[C@@H]3CCN2C[C@@H]3c2cc(-c3ccccc3OC)nn2C)cc1	inactive: 7.37% [at 38.4 µM]
Cn1nc(-c2ccc(F)cc2)cc1[C@H]1CN2CC[C@H]1C[C@@H]2CNC(=O)COc1ccccc1	inactive: -3.76% [at 38.4 µM]
C=C[C@H]1CN2CC[C@H]1C[C@@H]2CNC(=O)c1ccc(C#N)cc1	inactive: -3.37%
CC(C)NC(=O)NC[C@H]1C[C@@H]2CCN1C[C@@H]2c1cc(-c2cccs2)nn1C	inactive: -3.05%
CC(C)N1C[C@@H]2OCC(=O)N(CC3CC3)[C@@H]2C1	inactive: -1.92% [at 76.7 µM]
CN(Cc1ccccc1)C[C@H]1CN2CC[C@H]1C[C@@H]2CNC(=O)Nc1cccc(C#N)c1	inactive: 2.67%
O=C(O)c1cn(Cc2ccccc2F)nn1	inactive: -8.24% [at 38.4 µM]
CCCS(=O)(=O)NC[C@H]1C[C@@H]2CCN1C[C@@H]2c1cc(-c2cccs2)nn1C	inactive: -0.183%
Cc1nc(-c2ccccc2Br)cc([C@H]2CN3CC[C@H]2C[C@@H]3CNC(=O)Nc2ccccc2)n1	inactive: -18.1% [at 38.4 µM]
CNCc1cn(C[C@H]2CC3CCN2C[C@@H]3C(=O)Nc2ccccc2)nn1 (stereo partly specified)	inactive: -3.55%
Cc1nc(-c2ccccc2Br)cc([C@H]2CN3CC[C@H]2C[C@@H]3CNC(=O)c2ccc(N(C)C)cc2)n1	inactive: 0.539% [at 38.4 µM]

Compound	activity, negative = inhibition
CCCS(=O)(=O)NC[C@H]1C[C@@H]2CCN1C[C@@H]2CC	inactive: 3.53% [at 76.7 µM]
COc1ccccc1N1CCN(C(=O)[C@H]2CN3CCC2C[C@@H]3Cn2cc(C(C)(C)O)nn2)CC1 (stereo partly specified)	inactive: 3.42% [at 38.4 µM]
Cc1nc(-c2ccccc2)cc([C@H]2CN3CC[C@H]2C[C@@H]3CNC(=O)C2CCC2)n1	inactive: -9.59%
O=C(C1CCCCC1)N1C[C@@H]2C[C@H](C1)c1ccc(-c3cccc(C(F)(F)F)c3)c(=O)n1C2	inactive: -11.5% [at 38.4 µM]
Cn1nc(-c2ccccc2)cc1[C@H]1CN2CC[C@H]1C[C@@H]2CNC(=O)N1CCOCC1	inactive: -0.912%
Cc1ncc2c(n1)C[C@@H]1CC[C@H]2N1C(=O)c1sccc1C	inactive: 1.52% [at 38.4 µM]
CCN(CC)C[C@H]1CN2CC[C@H]1C[C@@H]2CNC(=O)Nc1cccc(SC)c1	inactive: -14%
C#C[C@H]1CN2CC[C@H]1C[C@@H]2COC(=O)Nc1cc(OC)cc(OC)c1	inactive: -10.4%
CC(C)NC(=O)NC[C@H]1C[C@@H]2CCN1C[C@@H]2c1cc(C2CCCCC2)nn1C	inactive: -1.69%
Cn1nc(-c2cccs2)cc1[C@H]1CN2CC[C@H]1C[C@@H]2CNC(=O)Nc1ccccc1	inactive: -0.379%
CC(=O)NCCNC(=O)[C@H]1CN2CCC1C[C@@H]2Cn1cc(-c2ccc(C(C)(C)C)cc2)nn1 (stereo partly specified)	inactive: -7.2% [at 38.4 µM]
C=C[C@H]1CN2CC[C@H]1C[C@@H]2CNC(=O)c1cc(OC)c(OC)c(OC)c1	inactive: -3.27%
Cc1cccc(OCC(=O)N2[C@H]3CC[C@@H]2c2cnc(-c4ccccc4)nc2C3)c1	inactive: -0.176% [at 38.4 µM]
Cc1nc(-c2ccccc2)cc([C@H]2CN3CC[C@H]2C[C@@H]3CNC(=O)c2cccs2)n1	inactive: 4.18%
O=C(c1ccc(F)cc1)N1C[C@@H]2C[C@H](C1)c1c(-c3cc4ccccc4s3)ccc(=O)n1C2	inactive: -1.25% [at 38.4 µM]
COc1ccc(-c2cc([C@H]3CN4CC[C@H]3C[C@@H]4CNS(=O)(=O)c3ccc(C)cc3)n(C)n2)cc1OC	inactive: 4.34% [at 38.4 µM]
COc1cc2c(cc1OCc1ccncc1)NC(=O)C21CCN(Cc2cccc(O)c2)CC1	inactive: -1.5% [at 38.4 µM]
CC(C)(C)NC(=O)N1[C@H]2CC[C@@H]1c1cnc(-c3ccccc3)nc1C2	inactive: 4.25% [at 38.4 µM]
COc1ccccc1-n1cc(C2=CCN(CCOCCO)CC2)cn1	inactive: 7.53% [at 38.4 µM]
Cc1nc(-c2ccc(N(C)C)cc2)cc([C@H]2CN3CC[C@H]2C[C@@H]3COC(=O)NC(C)C)n1	inactive: -0.971% [at 38.4 µM]
CC(C)NC(=O)OC[C@H]1C[C@@H]2CCN1C[C@@H]2c1cc(C2CCCC2)nc(-c2ccncc2)n1	inactive: -3.64% [at 38.4 µM]
CCC(CC)c1cc([C@H]2CN3CC[C@H]2C[C@@H]3CNC(=O)c2ccc(C)cc2)nc(-c2ccncc2)n1	inactive: 2.38% [at 38.4 µM]
CC(C)NC(=O)NC[C@H]1C[C@@H]2CCN1C[C@@H]2c1cc(C2CCCC2)nn1C	inactive: 3.9%
NC(=O)c1ccc(-c2cccc3c2CCNC3)s1	inactive: 0.0382% [at 38.4 µM]

Compound	activity, negative = inhibition
CC(=O)Nc1ccc(S(=O)(=O)NC[C@H]2C[C@@H]3CCN2C[C@@H]3c2cc(-c3ccccc3Br)nc(C)n2)cc1	inactive: 10.2% [at 38.4 µM]
CC(=O)Nc1ccc(-c2ccc(=O)n3c2[C@@H]2C[C@@H](CN(C(=O)C4CCCCC4)C2)C3)cc1	inactive: -2.71%
COc1ccc(C(=O)N2C[C@@H]3C[C@H](C2)c2c(NC(=O)c4ccco4)ccc(=O)n2C3)cc1	inactive: -22.2%
Cn1cc(C(=O)N2CC[C@@](C)(O)[C@@H](O)C2)c2ccccc21	inactive: 11.3% [at 38.4 µM]
C=C[C@H]1CN2CC[C@H]1C[C@@H]2CNC(=O)Nc1ccc(Oc2ccccc2)cc1	inactive: -3.86%
O=C1N(Cc2cccnc2)C[C@H]2CN(C3CCC3)CCN12	inactive: 0.975% [at 76.7 µM]
N#Cc1ccc(C(=O)N2C[C@@H]3C[C@H](C2)c2c(-c4ccccc4F)ccc(=O)n2C3)cc1	inactive: -5.57%
COc1ccc(CN2C[C@@H]3C[C@H]2C(=O)Nc2ccccc2O3)cn1	inactive: -24.4%
COc1ccc(C(=O)N2[C@H]3CC[C@@H]2c2cnc(C)nc2C3)c(OC)c1	inactive: 4.19% [at 38.4 µM]
CNCc1cn(C[C@H]2CC3CCN2C[C@@H]3C(=O)NCc2ccccc2)nn1 (stereo partly specified)	inactive: 0.0925%
Cc1nc(-c2ccco2)cc([C@H]2CN3CC[C@H]2C[C@@H]3CNC(=O)Nc2ccccc2)n1	inactive: 2.38%
CSCC(=O)N1C[C@@H]2C[C@H](C1)c1ccc(-c3ccccc3CN(C)C)c(=O)n1C2	inactive: 25.9%
C#C[C@H]1CN2CC[C@H]1C[C@@H]2CNS(=O)(=O)c1ccc(Cl)cc1	inactive: -1.5%
CC[C@H]1CN2CC[C@H]1C[C@@H]2CNCc1ccc(OC)cc1	inactive: -7.87% [at 76.7 µM]
CN(C)C(=O)[C@H]1CN2CCC1C[C@@H]2Cn1cc(CSc2ccccc2)nn1 (stereo partly specified)	inactive: 20.8%
CC1CCN(C[C@H]2CN3CC[C@H]2C[C@@H]3CNC(=O)Nc2ccccc2)CC1	inactive: 3.2%
CC[C@H]1CN2CC[C@H]1C[C@@H]2CNCc1ccc2c(c1)OCO2	inactive: -3.61%
CC[C@H]1CN2CC[C@H]1C[C@@H]2CNC(=O)c1ccc(N(C)C)cc1	inactive: 0.17%
CC(=O)Nc1ccc(S(=O)(=O)NC[C@H]2C[C@@H]3CCN2C[C@@H]3c2cc(-c3ccco3)nc(C)n2)cc1	inactive: -2.87% [at 38.4 µM]
COc1ccccc1CNC(=O)[C@H]1CN2CC[C@H]1C[C@@H]2Cn1cc(-c2ccccn2)nn1	inactive: -5.15%
CN(C)C(=O)[C@H]1CN2CCC1C[C@@H]2Cn1cc(-c2cccc(N)c2)nn1 (stereo partly specified)	inactive: -0.595%
O=C(C1CCCCC1)N1C[C@@H]2C[C@H](C1)c1c(-c3ccc(Cl)cc3)ccc(=O)n1C2	inactive: -8.84%
CC(=O)Nc1ccc(S(=O)(=O)NC[C@H]2C[C@@H]3CCN2C[C@@H]3c2cc(-c3ccccc3)nn2C)cc1	inactive: 17.5% [at 38.4 µM]

A portion from further up, as a working copy:
Compound	activity, negative = inhibition
COc1ccc(C(=O)N2[C@H]3CC[C@@H]2c2cnc(C)nc2C3)c(OC)c1	inactive: 4.19% [at 38.4 µM]
CNCc1cn(C[C@H]2CC3CCN2C[C@@H]3C(=O)NCc2ccccc2)nn1 (stereo partly specified)	inactive: 0.0925%
Cc1nc(-c2ccco2)cc([C@H]2CN3CC[C@H]2C[C@@H]3CNC(=O)Nc2ccccc2)n1	inactive: 2.38%
CSCC(=O)N1C[C@@H]2C[C@H](C1)c1ccc(-c3ccccc3CN(C)C)c(=O)n1C2	inactive: 25.9%
C#C[C@H]1CN2CC[C@H]1C[C@@H]2CNS(=O)(=O)c1ccc(Cl)cc1	inactive: -1.5%
CC[C@H]1CN2CC[C@H]1C[C@@H]2CNCc1ccc(OC)cc1	inactive: -7.87% [at 76.7 µM]
CN(C)C(=O)[C@H]1CN2CCC1C[C@@H]2Cn1cc(CSc2ccccc2)nn1 (stereo partly specified)	inactive: 20.8%
CC1CCN(C[C@H]2CN3CC[C@H]2C[C@@H]3CNC(=O)Nc2ccccc2)CC1	inactive: 3.2%
CC[C@H]1CN2CC[C@H]1C[C@@H]2CNCc1ccc2c(c1)OCO2	inactive: -3.61%
CC[C@H]1CN2CC[C@H]1C[C@@H]2CNC(=O)c1ccc(N(C)C)cc1	inactive: 0.17%
CC(=O)Nc1ccc(S(=O)(=O)NC[C@H]2C[C@@H]3CCN2C[C@@H]3c2cc(-c3ccco3)nc(C)n2)cc1	inactive: -2.87% [at 38.4 µM]
